No constants are given. Whether binding was seen depends on the method and setting. Some binding calls cover weakened binding; strength is not graded here.
What was measured:
[1] = target: T1, GID1a (purified, amine-coupled to a CM5 sensor chip) (Arabidopsis) (UniProt Q9MAA7); assay: SPR, GID1a amine-coupled to CM5; RGA and AtS1 injected together with GA3; competitor RGA
T1 sequence: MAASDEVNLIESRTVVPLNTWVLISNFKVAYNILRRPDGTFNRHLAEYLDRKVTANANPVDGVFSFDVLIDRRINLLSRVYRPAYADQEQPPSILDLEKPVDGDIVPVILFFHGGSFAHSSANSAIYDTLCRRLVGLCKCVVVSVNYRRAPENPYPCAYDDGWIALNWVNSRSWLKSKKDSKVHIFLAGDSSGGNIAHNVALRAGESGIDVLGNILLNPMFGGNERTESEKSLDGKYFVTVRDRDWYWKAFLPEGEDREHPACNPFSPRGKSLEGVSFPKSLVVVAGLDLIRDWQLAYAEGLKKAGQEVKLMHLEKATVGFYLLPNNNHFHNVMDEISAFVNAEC

Sequences of proteins named here, by UniProt entry; tags and fusion partners are left off. Residues count along the entry.
UniProt P55852, residues 1-93: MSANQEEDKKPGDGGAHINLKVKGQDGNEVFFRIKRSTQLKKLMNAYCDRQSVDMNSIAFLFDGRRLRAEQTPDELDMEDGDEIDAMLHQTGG

[2] = target: T1, GID1a (purified, amine-coupled to a CM5 sensor chip) (Arabidopsis); assay: SPR sensorgram, GID1a on the chip

binding [1]: binds | binding [2]: binds
Substance: SUMO1 (AtS1) (from UniProt P55852 1-93)

Reference: US20150353950A1, “TRANSGENIC PLANTS” (Durham University, priority 2012, published 2015)
